Assay results: PubChem BioAssay AID220 (DTP/NCI, 2004)
The list shows only some results of the screen, not a fair sample: it is rich in T/C values a quarter to a half above the control, in often repeated tests (any T/C) and in doses without a T/C. Further doses and runs are listed elsewhere. T/C: endpoint of the treated group in % of that of the vehicle group. Schedules are NCI's codes, taken here to give the interval after Q, in days (D) or hours (H), and the number of doses after X. Some values lie below zero, which means that the treated tumours became smaller. Some entries hold several experiments; their values stand side by side, smallest first. Some T/C values carry the count of animals alive at the toxicity check (mostly the fifth day); without a count, all were alive then. Some doses have a count of surviving animals in place of a T/C: the source files T/C as zero there, which appears to mark a toxic dose or a test without result, not a measured value. Survivors were counted at the toxicity check, usually on the fifth day, unless a day is given; later deaths do not show.

Tested on: CD8F1 mice, subcutaneous mammary adenocarcinoma, T/C%
Assay: NCI In Vivo Anticancer Drug Screen. Data for tumor model Mammary Adenocarcinoma CD8F1 (subcutaneous) in CD8F1
Conditions: higher T/C = larger tumour
Method in brief: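 Mice carrying transplanted tumors received test compound, and survival or tumor size was recorded. Each value is the treated-group measurement divided by the corresponding measurement in vehicle-dosed controls.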

O=c1[nH]cc(F)c(=O)[nH]1
T/C (T/C endpoint: mean tumor weight, dose: 20.0 mg/kg/injection, schedule: Q01DX009 (ip), vehicle: saline, evaluated on day 51): 139 % of control | survivor count (T/C endpoint: median tumor weight (est.), dose: 100.0 mg/kg/injection, schedule: Q07DX005 (ip), vehicle: saline): 5 of 10 | T/C (T/C endpoint: median tumor weight change, dose: 89.0 mg/kg/injection, schedule: Q01DX001 (ip), vehicle: saline, evaluated on day 29): 13 % of control | T/C (T/C endpoint: median tumor weight change, dose: 89.0 mg/kg/injection, schedule: Q01DX001 (ip), vehicle: saline, evaluated on day 30): 27 % of control | T/C (T/C endpoint: median tumor weight change, dose: 89.0 mg/kg/injection, schedule: Q01DX001 (ip), vehicle: saline, evaluated on day 33): -38 and 12 % of control | T/C (T/C endpoint: median tumor weight change, dose: 133.0 mg/kg/injection, schedule: Q01DX001 (ip), vehicle: saline, evaluated on day 29): 8 % of control | T/C (T/C endpoint: median tumor weight change, dose: 133.0 mg/kg/injection, schedule: Q01DX001 (ip), vehicle: saline, evaluated on day 30): 17 % of control [9 of 10 alive on day 27] | T/C (T/C endpoint: median tumor weight change, dose: 133.0 mg/kg/injection, schedule: Q01DX001 (ip), vehicle: saline, evaluated on day 32): 3 % of control | T/C (T/C endpoint: median tumor weight change, dose: 133.0 mg/kg/injection, schedule: Q01DX001 (ip), vehicle: saline, evaluated on day 33): -39 % of control | T/C (T/C endpoint: median tumor weight change, dose: 133.0 mg/kg/injection, schedule: Q01DX001 (ip), vehicle: saline, evaluated on day 34): 26 % of control | survivor count (T/C endpoint: median tumor weight change, dose: 133.0 mg/kg/injection, schedule: Q01DX001 (ip), vehicle: saline): 6 of 10 on day 30 | T/C (T/C endpoint: median tumor weight change, dose: 200.0 mg/kg/injection, schedule: Q01DX001 (ip), vehicle: saline, evaluated on day 29): 6 % of control | T/C (T/C endpoint: median tumor weight change, dose: 200.0 mg/kg/injection, schedule: Q01DX001 (ip), vehicle: saline, evaluated on day 30): -12 % of control [8 of 10 alive on day 27] | T/C (T/C endpoint: median tumor weight change, dose: 200.0 mg/kg/injection, schedule: Q01DX001 (ip), vehicle: saline, evaluated on day 32): -7 % of control | T/C (T/C endpoint: median tumor weight change, dose: 200.0 mg/kg/injection, schedule: Q01DX001 (ip), vehicle: saline, evaluated on day 33): -80 and -62 % of control | T/C (T/C endpoint: median tumor weight change, dose: 200.0 mg/kg/injection, schedule: Q01DX001 (ip), vehicle: saline, evaluated on day 34): -25 % of control [7 of 10 alive on day 34] | survivor count (T/C endpoint: median tumor weight change, dose: 200.0 mg/kg/injection, schedule: Q01DX001 (ip), vehicle: saline): 6 of 10 on day 28 | T/C (T/C endpoint: median tumor weight change, dose: 270.0 mg/kg/injection, schedule: Q01DX001 (ip), vehicle: saline, evaluated on day 29): -21 % of control | T/C (T/C endpoint: median tumor weight change, dose: 270.0 mg/kg/injection, schedule: Q01DX001 (ip), vehicle: saline, evaluated on day 32): -43 % of control [6 of 9 alive on day 32] | T/C (T/C endpoint: median tumor weight change, dose: 270.0 mg/kg/injection, schedule: Q01DX001 (ip), vehicle: saline, evaluated on day 33): -77 % of control [8 of 10 alive on day 30] | T/C (T/C endpoint: median tumor weight change, dose: 270.0 mg/kg/injection, schedule: Q01DX001 (ip), vehicle: saline, evaluated on day 34): 5 % of control [8 of 10 alive on day 34] | survivor count (T/C endpoint: median tumor weight change, dose: 270.0 mg/kg/injection, schedule: Q01DX001 (ip), vehicle: saline): 2 of 10 on day 27 and 5 of 10 on day 30 | survivor count (T/C endpoint: median tumor weight change, dose: 400.0 mg/kg/injection, schedule: Q01DX001 (ip), vehicle: saline): 2 of 10 on day 28

O=CN(SSN(C=O)C1CCCCC1)C1CCCCC1
T/C (T/C endpoint: median tumor weight (est.), dose: 12.5 mg/kg/injection, schedule: Q07DX005 (ip), vehicle: saline with Tween-80, evaluated on day 30): 133 % of control [9 of 10 alive on day 30] | T/C (T/C endpoint: median tumor weight (est.), dose: 100.0 mg/kg/injection, schedule: Q07DX005 (ip), vehicle: saline with Tween-80, evaluated on day 30): 131 % of control [8 of 10 alive on day 30] | survivor count (T/C endpoint: median tumor weight (est.), dose: 400.0 mg/kg/injection, schedule: Q07DX005 (ip), vehicle: saline with Tween-80): 3 of 10 on day 30

COc1ccc2c(c1)CCn1c(C)c(COC(=O)NC(C)C)c(COC(=O)NC(C)C)c1-2
survivor count (T/C endpoint: median tumor weight change, dose: 125.0 mg/kg/injection, schedule: Q01DX001 (ip), vehicle: distilled water + Tween-80): 5 of 10 on day 30 | survivor count (T/C endpoint: median tumor weight change, dose: 250.0 mg/kg/injection, schedule: Q01DX001 (ip), vehicle: distilled water + Tween-80): 0 of 10 on day 30 and 5 of 10 on day 26

CC1(C)COCN1COC1CCCCC1
T/C (T/C endpoint: median tumor weight change, dose: 125.0 mg/kg/injection, schedule: Q01DX001 (ip), vehicle: saline with Tween-80, evaluated on day 31): 145 % of control | survivor count (T/C endpoint: median tumor weight change, dose: 250.0 mg/kg/injection, schedule: Q01DX001 (ip), vehicle: saline with Tween-80): 0 of 10 on day 32 and 3 of 10 on day 31 | survivor count (T/C endpoint: median tumor weight change, dose: 500.0 mg/kg/injection, schedule: Q01DX001 (ip), vehicle: saline with Tween-80): 0 of 10 on day 31 and 0 of 10 on day 32 | survivor count (T/C endpoint: median tumor weight change, dose: 1000.0 mg/kg/injection, schedule: Q01DX001 (ip), vehicle: saline with Tween-80): 0 of 10 on day 31 and 0 of 10 on day 32 | survivor count (T/C endpoint: median tumor weight change, dose: 2000.0 mg/kg/injection, schedule: Q01DX001 (ip), vehicle: saline with Tween-80): 0 of 10 on day 31 and 0 of 10 on day 32
